Experimental data published in PMC12781162, “Human Protein Z as the Second Known Heme‐Binding Protein from the Endogenous Blood Coagulation Inhibitor System” (Chembiochem, 2025).

Legend:
[1] = UV/vis spectroscopic interaction studies of PZ-derived peptides with heme; format: binding; settings: heme–peptide complex, difference spectra
Method: Heme binding to PZ‐derived peptides 1 –5 was analyzed by UV/vis spectroscopy, as previously reported for other protein‐derived peptides as well.^[ [18] ^, [19] ^, [35] ^, [43] ^, [44] ^] In brief, each peptide (10 µM) was incubated for 30 min with heme in 100 mM HEPES buffer (pH 7.0) for 30 min. Absorbance spectra were recorded in the range of 300–600 nm on a Infinite 200 Pro spectrophotometer. Difference spectra were generated by subtraction of the single absorbance data of heme and the peptide, respectively, from the data of the heme–peptide complex. Difference spectra were plotted with GraphPad Prism, version 10.5.0. K D values were calculated using the equation from Pîrnău and Bogdan (2008).^[ [45] ^]

PZ = system: T1, PZ; assay: UV/vis-spectroscopic titration of heme to PZ; format: binding, human
T1 construct: purchased CellSystems GmbH HCPZ-0220

Substance	Soret shift [1]	number of heme molecules bound specifically by PZ (PZ; UV/vis titration, saturation at ratio 1:1)	Soret band shift (PZ; heme (90 µM) titrated to PZ (10 µM), ratios 1:1 to 1:4)
C(Me)SLLHRNITVKTYFNRT (N-terminal S-methylated cysteine) [Peptide 3, PZ-derived peptide around H183/Y191 with methylated cysteine, positions 179 - 195]	~ 417 nm	–	–
FWRRYKGGS [Peptide 1]	~ 420 nm	–	–
Hemin [heme]	–	one	≈ 404 nm
IKITHVHVHMRYD [Peptide 4, PZ-derived peptide around H206/H208/H210, positions 202 - 214]	~ 418 nm	–	–
VTREHRGSW [Peptide 5, PZ-derived peptide around H321, positions 317 - 325]	~ 421 nm	–	–
